Data as given in PubChem BioAssay AID652272 (Drosophila RNAi Screening Center, 2013)
Screen: 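Genes whose knock-down decreases or increases Hedgehog reporter output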 (primary screen). System: Drosophila clone 8 (Cl8) cells. Reagent: long dsRNA against Drosophila genes. Detection: 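Firefly light from a Hedgehog-responsive ptc promoter reporter and Renilla reference light, both read on a plate reader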. Scale: firefly Hh reporter signal: higher = more ptc reporter light; Renilla reference signal: higher = more Renilla control light. Rule for the call: 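Hit when the z-score averaged over two replicates is under -2 or over +3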. Meaning of the calls: active = hit: reporter lowered or raised; inactive = not a hit.
The deposit covers about 21,000 reagents; shown is a random part of those with a known target gene and a result. Over the whole deposit, 503 (2.4%) got an active call. 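Raw plate light values, not normalised; calls rest on replicate z-scores that were not deposited; hits include reporter decreases as well as increases.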 Not stated in the record: the amount of reagent, the time to read-out.

Against MED30 [DRSC08516], the values are firefly Hh reporter signal, replicate 1 = 91077; firefly Hh reporter signal, replicate 2 = 46906; Renilla reference signal, replicate 1 = 3760; Renilla reference signal, replicate 2 = 1570; inactive.
With knock-down of rswl [DRSC06923] the results were firefly Hh reporter signal, replicate 1 = 1.06e5; firefly Hh reporter signal, replicate 2 = 99235; Renilla reference signal, replicate 1 = 4349; Renilla reference signal, replicate 2 = 3466; inactive.
Knock-down of mRF1 [DRSC02880] came out at: firefly Hh reporter signal, replicate 1 = 94369; firefly Hh reporter signal, replicate 2 = 58474; Renilla reference signal, replicate 1 = 4412; Renilla reference signal, replicate 2 = 2131; inactive.
pippin [DRSC04489] scored firefly Hh reporter signal, replicate 1 = 1.15e5; firefly Hh reporter signal, replicate 2 = 86592; Renilla reference signal, replicate 1 = 5026; Renilla reference signal, replicate 2 = 3703; inactive.
Against Kap3 [DRSC19426], the entry reads firefly Hh reporter signal, replicate 1 = 1.78e5; firefly Hh reporter signal, replicate 2 = 96904; Renilla reference signal, replicate 1 = 4125; Renilla reference signal, replicate 2 = 2569; inactive.
For ovo [DRSC18050], the entry reads firefly Hh reporter signal, replicate 1 = 85396; firefly Hh reporter signal, replicate 2 = 1.06e5; Renilla reference signal, replicate 1 = 1899; Renilla reference signal, replicate 2 = 2733; inactive.
ovo [DRSC18812] gave firefly Hh reporter signal, replicate 1 = 1.17e5; firefly Hh reporter signal, replicate 2 = 3.25e5; Renilla reference signal, replicate 1 = 4171; Renilla reference signal, replicate 2 = 11633; inactive.
Z600 [DRSC11317] scored firefly Hh reporter signal, replicate 1 = 1.50e5; Renilla reference signal, replicate 1 = 5398; Renilla reference signal, replicate 2 = 3751; inactive.

Sorted by “Renilla reference signal, replicate 1” (lowest first): 2 of the entries above
ovo [DRSC18050] → firefly Hh reporter signal, replicate 1: 85396; firefly Hh reporter signal, replicate 2: 1.06e5; Renilla reference signal, replicate 1: 1899; Renilla reference signal, replicate 2: 2733; activity call: inactive
ovo [DRSC18812] → firefly Hh reporter signal, replicate 1: 1.17e5; firefly Hh reporter signal, replicate 2: 3.25e5; Renilla reference signal, replicate 1: 4171; Renilla reference signal, replicate 2: 11633; activity call: inactive

The list goes on:
After knock-down of CG10428 [DRSC02054] the results were firefly Hh reporter signal, replicate 1 = 74681; firefly Hh reporter signal, replicate 2 = 71041; Renilla reference signal, replicate 1 = 3298; Renilla reference signal, replicate 2 = 3160; inactive.
After knock-down of CG3407 [DRSC00603] the results were firefly Hh reporter signal, replicate 1 = 66017; firefly Hh reporter signal, replicate 2 = 82220; Renilla reference signal, replicate 1 = 3585; Renilla reference signal, replicate 2 = 3757; inactive.
CG33124 [DRSC00298] showed firefly Hh reporter signal, replicate 1 = 69601; firefly Hh reporter signal, replicate 2 = 94736; Renilla reference signal, replicate 1 = 1512; Renilla reference signal, replicate 2 = 1796; inactive.
Silencing of CG42694 [DRSC03955] gave: firefly Hh reporter signal, replicate 1 = 1.06e5; firefly Hh reporter signal, replicate 2 = 2.64e5; Renilla reference signal, replicate 1 = 2725; Renilla reference signal, replicate 2 = 11221; inactive.
